Changes are numbered by the printed parent chain. Results are given in words; binding and its absence hold for the method and conditions named. For part of these data: Binding seen in cells or lysates may run through a third protein. Some entries that bind do so weakly or less than the wild type. For part of these data: Tags and fused reporters may be left off the sequences shown. One block for each binder: values may come before it.
Assays:
mCherry-NEDD4 [1] = target: mCherry-NEDD4 (UniProt P46934); experiment: confocal colocalisation in β2AR-expressing cells (FIG. 8C)
mCherry-NEDD4 [2] = target: mCherry-NEDD4 (UniProt P46934); experiment: confocal colocalisation in 293β2AR cells after agonist (FIG. 8C)
[3] = target: T1, NEDD4 E3 ubiquitin ligase (UniProt P46934-4 1-900, limits assumed); experiment: co-immunoprecipitation, immunoblot (FIG. 8B); residual binding of the single mutant is implied
T1 construct: also called ubiquitin ligase NEDD4
T1 sequence (looked up): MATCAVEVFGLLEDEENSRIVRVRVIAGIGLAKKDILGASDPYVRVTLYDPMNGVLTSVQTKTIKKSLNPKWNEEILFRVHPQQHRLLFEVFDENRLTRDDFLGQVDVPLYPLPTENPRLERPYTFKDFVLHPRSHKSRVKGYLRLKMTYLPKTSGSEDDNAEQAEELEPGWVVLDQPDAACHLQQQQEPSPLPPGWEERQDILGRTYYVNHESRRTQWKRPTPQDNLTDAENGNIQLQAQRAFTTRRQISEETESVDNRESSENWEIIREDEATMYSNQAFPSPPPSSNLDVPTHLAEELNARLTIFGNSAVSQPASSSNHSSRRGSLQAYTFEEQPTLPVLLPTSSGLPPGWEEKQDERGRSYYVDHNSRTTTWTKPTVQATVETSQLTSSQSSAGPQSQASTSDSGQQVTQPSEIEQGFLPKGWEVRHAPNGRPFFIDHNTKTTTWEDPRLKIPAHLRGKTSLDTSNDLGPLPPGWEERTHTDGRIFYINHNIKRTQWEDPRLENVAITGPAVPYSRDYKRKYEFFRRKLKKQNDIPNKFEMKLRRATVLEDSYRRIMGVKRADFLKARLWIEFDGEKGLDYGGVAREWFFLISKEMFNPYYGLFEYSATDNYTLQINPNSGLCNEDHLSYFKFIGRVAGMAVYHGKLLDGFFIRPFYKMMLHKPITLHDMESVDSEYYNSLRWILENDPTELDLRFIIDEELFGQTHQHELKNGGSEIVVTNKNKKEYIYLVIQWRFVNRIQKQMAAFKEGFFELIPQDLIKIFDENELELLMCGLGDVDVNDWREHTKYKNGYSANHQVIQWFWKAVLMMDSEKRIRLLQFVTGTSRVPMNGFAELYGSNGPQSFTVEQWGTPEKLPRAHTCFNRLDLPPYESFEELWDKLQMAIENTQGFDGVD

[4] = target: T1, NEDD4 E3 ubiquitin ligase; experiment: co-immunoprecipitation from transfected cells, immunoblot (FIG. 8B)
[5] = target: T1, NEDD4 E3 ubiquitin ligase; experiment: summary of co-IP results
[6] = target: T1, NEDD4 E3 ubiquitin ligase; experiment: co-immunoprecipitation, immunoblot (FIG. 8B)

binding (mCherry-NEDD4 [1]): binds | binding (mCherry-NEDD4 [2]): binds
B1: ARRDC3-GFP (protein, human, UniProt Q96B67 1-414, looked up, not shown: large carriers)
chain: MVLGKVKSLTISFDCLNDSNVPVYSSGDTVSGRVNLEVTGEIRVKSLKIHARGHAKVRWTESRNAGSNTAYTQNYTEEVEYFNHKDILIGHERDDDNSEEGFHTIHSGRHEYAFSFELPQTPLATSFEGRHGSVRYWVKAELHRPWLLPVKLKKEFTVFEHIDINTPSLLSPQAGTKEKTLCCWFCTSGPISLSAKIERKGYTPGESIQIFAEIENCSSRMVVPKAAIYQTQAFYAKGKMKEVKQLVANLRGESLSSGKTETWNGKLLKIPPVSPSILDCSIIRVEYSLMVYVDIPGAMDLFLNLPLVIGTIPLHPFGSRTSSVSSQCSMNMNWLSLSLPERPEAPPSYAEVVTEEQRRNNLAPVSACDDFERALQGPLFAYIQEFRFLPPPLYSEIDPNPDQSADDRPSCPSR

binding [3]: binds
B2: ARRDC3-AALA (single PPXY motif mutant of ARRDC3) (protein, human, UniProt Q96B67 1-414, looked up)
chain: B1 chain with P391A, P392A, Y394A

binding [4]: binds | binding [5]: binds | binding [6]: binds
B3: ARRDC3 (arrestin domain containing 3), wild type (protein, human, UniProt Q96B67 1-414, looked up)
chain: B1 chain

From US20130090371A1, “METHODS AND COMPOSITIONS FOR INHIBITION OF BETA2-ADRENERGIC RECEPTOR DEGRADATION” (PRESIDENT AND FELLOWS OF HARVARD COLLEGE, priority 2010, published 2013)
